# Assay results from PubChem BioAssay AID1745846 (National Center for Advancing Translational Sciences (NCATS), 2022).
# Among all 1,400 compounds or so, about 30 (2%) were called active. Not shown: some 15% with an inconclusive outcome. Calls come from the whole dose curve; as a rule, active = well fitted inhibition curve with a large enough effect; inconclusive = small, poorly fitted or top-dose-only effect; inactive = flat fitted curve, though single readings scatter. The list shows a part of the results.
# Test: Firefly Luciferase Counterscreen for Inhibitors of ATXN expression
# Settings: luminescence; series mostly up to 57.5 µM; activity change, negative = inhibition: at the top concentration
# Summary of the method: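 Recombinant firefly luciferase at 10 nM final in 50 mM Tris pH 7.5, 10 mM MgCl2, 0.05% BSA, 0.01% Tween20 with substrate; compounds up to 57 uM final, 10 min room temperature, end-point luminescence. Buffer-only wells define 100% inhibition.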
# % is set by controls: 0 for no effect and ±100 for the full control effect.
row,SMILES,"activity change, negative = inhibition"
1,NNC(=O)c1nc(-c2ccccc2)cc(-c2ccccc2)n1,inactive: -10.1%
2,COc1ccc(CCNc2ncnc3c2[nH]c2cc(OC)c(OC)cc23)cc1OC,inactive: -19.6%
3,Cn1cc(/C=C/c2cc[n+](C)cc2)c2cc(F)ccc21,inactive: -0.972%
4,Cc1ccc(C(=O)N(C)CC(=O)Nc2ccc(Cl)c(C(F)(F)F)c2)cc1S(=O)(=O)N1CCCCC1,inactive: -1.27%
5,COc1ccc(CCNC(=O)c2cc(-c3cc(C)cc(C)c3O)n[nH]2)cc1OC,inactive: -15.5%
6,Cc1cccc(N2CCN(S(=O)(=O)c3ccc4c(c3)C(C)(C)C(=O)N4C)CC2)c1C,inactive: 1.85%
7,CCOc1ccc(Nc2c3ccccc3nc3ccccc23)cc1,inactive: -5.74%
8,NC(COCc1ccccc1)c1csc(Nc2ccc(C(F)(F)F)cn2)n1 (stereo unspecified),inactive: -1.71%
9,Cc1ccc(/C=C2/SC(=S)N(CCCC(=O)Nc3cc([N+](=O)[O-])ccc3O)C2=O)cc1,inactive: -19.1%
10,CCOC(=O)N(C)c1c(CC)nc2c(OCc3ccccc3C)cccn12,inactive: -0.725%
11,Cc1c(C(=O)NCc2ccc(F)cc2)sc(=O)n1Cc1ccc(Cl)c(Cl)c1,inactive: -1.09%
12,CCOc1cc([C@@H]2C[C@H]3CN(c4ccccc4)C(=O)[C@]34CCCN24)ccc1OC,inactive: -1.04%
13,COc1cc([N+](=O)[O-])cc(/C=N/NC(=O)c2ccc(NC(=O)c3ccc(C)cc3)cc2)c1O,inactive: -2.91%
14,CCCCN(C=O)c1c(CC)nc2ccc(C(=O)Nc3cc(-c4ccccc4)ccc3OC)cn12,inactive: -1.65%
15,CN(Cc1cnc2nc(N)nc(N)c2n1)c1ccc(C(=O)NC(CCC(=O)O)C(=O)O)c2ccccc12 (stereo unspecified),inactive: -9.04%
16,Cc1ccc(Nc2c(-c3ccccn3)nc3cc(C)ccn23)cc1,inactive: -11.5%
17,Cc1[nH]c2ccccc2c1C1=NNC(=Nc2ccc(F)cc2)SC1,inactive: -1.37%
18,CCCc1cc(=O)[nH]c(-n2[nH]c3c(c2=O)CCCC3)n1,inactive: -3.31%
19,COc1ccnc(Oc2ccc(F)cc2)c1C(=O)N/C=N/OCc1ccc(Cl)cc1Cl,inactive: -3.68%
20,Oc1c(C(Nc2ccccn2)c2cccnc2)cc(Cl)c2cccnc12 (stereo unspecified),inactive: -17.9%
21,O=C(N/N=C/c1ccc(O)cc1O)c1ccc(CN2C(=O)c3cccc4cccc2c34)cc1,inactive: -3.52%
22,CCCCNC(=O)C1(C)CCCCN1Cc1ccccc1-c1ccccc1 (stereo unspecified),inactive: -2.26%
23,NC(Cc1ccccc1)c1csc(Nc2nncc3ccccc23)n1 (stereo unspecified),inactive: -3.51%
24,COc1ccc(CC(=O)Nc2nc(-c3ccc(F)c(F)c3)cs2)cc1OC,inactive: -5.08%
25,COc1ccc(C(NC(C)=O)c2cc(Cl)c3cccnc3c2O)cc1OC (stereo unspecified),inactive: -18.1%
26,CC1(C)Cc2c(c(N3CCOCC3)nc3sc4c(NN)ncnc4c23)CS1,inactive: 4.74%

# Ordered by molecular weight (ascending): part of the list above.
row,SMILES,"activity change, negative = inhibition"
1,NNC(=O)c1nc(-c2ccccc2)cc(-c2ccccc2)n1,inactive: -10.1%
17,Cc1[nH]c2ccccc2c1C1=NNC(=Nc2ccc(F)cc2)SC1,inactive: -1.37%
6,Cc1cccc(N2CCN(S(=O)(=O)c3ccc4c(c3)C(C)(C)C(=O)N4C)CC2)c1C,inactive: 1.85%

# Next part

row,SMILES,"activity change, negative = inhibition"
1,FC(F)(F)c1cc(-c2ccccn2)nc2cc(-c3ccccc3)nn12,inactive: 1.02%
2,CCOC(=O)c1cnc(-n2nc(C)cc2C)nc1NNc1cc(C)nc(-c2ccccc2)n1,inactive: 0.0162%
3,CC(Oc1ccc(Cl)cc1)C(=O)NNC(=S)NC(=O)c1ccco1 (stereo unspecified),inactive: -17.1%
4,Cc1cccc(OCCSc2nc3ncnc(N)c3[nH]2)c1,inactive: 3.02%
5,CC(Sc1nnc2c(n1)[nH]c1ccccc12)C(=O)N(C)C1CCCCC1 (stereo unspecified),inactive: -10.2%
6,Nc1cccc2nc3ccccc3cc12,inactive: -4.32%
7,Clc1ccc(-c2cc(C3CCNCC3)[nH]n2)c(Cl)c1,inactive: -10.2%
8,Cc1ccc(NC(=O)c2ccc(-c3nn(C)c(=O)c4ccccc34)cc2)cc1,inactive: -1.05%
9,Cc1ccc(C)c(S(=O)(=O)N2CCN(Cc3ccc(O)c4ncccc34)CC2)c1,inactive: 0.471%
10,Cc1nnc(-c2ccccc2)c(=O)n1/N=C/c1c(O)ccc2ccccc12,inactive: -19.2%
11,C=CCc1cccc(/C=N/NC(=O)CCC(=O)Nc2ccc(C)cc2)c1O,inactive: -1.11%
12,Cc1ccc(NC(=O)COc2ccc(/C=C3/SC(=Nc4ccccc4)N(Cc4cccnc4)C3=O)cc2)cc1,inactive: 2.57%
13,Cc1ccc(N2CC(C(=O)Nc3nccs3)CC2=O)cc1Cl (stereo unspecified),inactive: -2.52%
14,CC(C)(C)c1cc(C(=O)N/N=C/c2ccc([N+](=O)[O-])s2)n[nH]1,inactive: 2%
15,CCCCCCn1c2c(c(=N)c3c1CCC3)CCC2,inactive: 3.98%
16,COc1ccc(OC)c(/C=C/C(=O)N2C(=O)c3cccc(N)c3C2=O)c1,inactive: -5.92%
17,CC1(C(=O)NCc2cccc(C(F)(F)F)c2)CCN1Cc1ccc(-c2ccccc2)o1 (stereo unspecified),inactive: -4.91%
18,COc1cc(/C=C/C(=O)c2ccc(C)c([N+](=O)[O-])c2)cc(OC)c1O,inactive: -5.57%
19,O=C(c1ccc(F)cc1F)C1CCN(c2ccc([N+](=O)[O-])cn2)CC1,inactive: 1.01%
20,CN1CCC2(CC1)N=C(c1ccc(F)cc1)C(=S)N2C(=O)c1ccc(C(C)(C)C)cc1,inactive: -16.8%
21,O=C(c1ccco1)N1CCN(c2ccnc3cc(Cl)ccc23)CC1,inactive: -13.2%
22,CCCCOc1ccccc1NC(=O)Cn1c(-c2nonc2N)nc2ccccc21,inactive: 22.6%
23,[O-][n+]1c2ccccc2cc2ccccc21,inactive: -10.2%
24,Cc1cccc(CN2C(=O)/C(=C\c3ccc(C(=O)NCCN4CCOCC4)cc3)Sc3ccccc32)c1,inactive: -8.78%
25,Cc1ccc2cc(C#N)c(N3CCN(C(=O)c4ccccc4)CC3)nc2c1,inactive: -2.49%
